This passage reports binding results from article doi:10.1101/2021.10.22.465432 (bioRxiv, 2021).

Sequences of proteins named here, by UniProt entry; tags and fusion partners are left off.
UniProt Q80YR5: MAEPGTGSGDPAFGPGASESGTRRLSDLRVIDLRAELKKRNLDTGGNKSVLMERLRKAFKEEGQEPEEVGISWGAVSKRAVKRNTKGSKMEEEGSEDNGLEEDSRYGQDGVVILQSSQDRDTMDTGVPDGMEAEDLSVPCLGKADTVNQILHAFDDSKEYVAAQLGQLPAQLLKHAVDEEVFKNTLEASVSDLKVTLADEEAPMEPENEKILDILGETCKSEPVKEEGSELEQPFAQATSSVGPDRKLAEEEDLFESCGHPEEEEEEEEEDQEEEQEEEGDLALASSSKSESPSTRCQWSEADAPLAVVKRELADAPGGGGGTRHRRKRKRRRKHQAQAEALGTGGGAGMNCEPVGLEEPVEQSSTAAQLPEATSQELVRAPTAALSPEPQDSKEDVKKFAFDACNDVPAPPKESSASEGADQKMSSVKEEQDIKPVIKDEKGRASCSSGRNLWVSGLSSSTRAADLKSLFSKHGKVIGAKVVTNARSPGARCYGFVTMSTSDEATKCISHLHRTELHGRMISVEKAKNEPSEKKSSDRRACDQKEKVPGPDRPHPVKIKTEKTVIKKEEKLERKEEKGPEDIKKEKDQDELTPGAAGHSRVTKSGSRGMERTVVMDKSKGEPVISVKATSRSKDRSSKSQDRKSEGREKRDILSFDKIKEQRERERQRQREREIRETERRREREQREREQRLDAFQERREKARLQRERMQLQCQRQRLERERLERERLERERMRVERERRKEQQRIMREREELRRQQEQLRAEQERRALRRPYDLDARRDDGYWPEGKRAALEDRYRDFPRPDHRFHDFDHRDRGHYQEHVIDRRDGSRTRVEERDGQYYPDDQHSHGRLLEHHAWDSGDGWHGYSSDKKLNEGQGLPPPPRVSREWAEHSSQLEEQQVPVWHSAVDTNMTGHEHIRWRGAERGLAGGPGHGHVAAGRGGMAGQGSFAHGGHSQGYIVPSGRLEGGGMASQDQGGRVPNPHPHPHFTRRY
UniProt O70133: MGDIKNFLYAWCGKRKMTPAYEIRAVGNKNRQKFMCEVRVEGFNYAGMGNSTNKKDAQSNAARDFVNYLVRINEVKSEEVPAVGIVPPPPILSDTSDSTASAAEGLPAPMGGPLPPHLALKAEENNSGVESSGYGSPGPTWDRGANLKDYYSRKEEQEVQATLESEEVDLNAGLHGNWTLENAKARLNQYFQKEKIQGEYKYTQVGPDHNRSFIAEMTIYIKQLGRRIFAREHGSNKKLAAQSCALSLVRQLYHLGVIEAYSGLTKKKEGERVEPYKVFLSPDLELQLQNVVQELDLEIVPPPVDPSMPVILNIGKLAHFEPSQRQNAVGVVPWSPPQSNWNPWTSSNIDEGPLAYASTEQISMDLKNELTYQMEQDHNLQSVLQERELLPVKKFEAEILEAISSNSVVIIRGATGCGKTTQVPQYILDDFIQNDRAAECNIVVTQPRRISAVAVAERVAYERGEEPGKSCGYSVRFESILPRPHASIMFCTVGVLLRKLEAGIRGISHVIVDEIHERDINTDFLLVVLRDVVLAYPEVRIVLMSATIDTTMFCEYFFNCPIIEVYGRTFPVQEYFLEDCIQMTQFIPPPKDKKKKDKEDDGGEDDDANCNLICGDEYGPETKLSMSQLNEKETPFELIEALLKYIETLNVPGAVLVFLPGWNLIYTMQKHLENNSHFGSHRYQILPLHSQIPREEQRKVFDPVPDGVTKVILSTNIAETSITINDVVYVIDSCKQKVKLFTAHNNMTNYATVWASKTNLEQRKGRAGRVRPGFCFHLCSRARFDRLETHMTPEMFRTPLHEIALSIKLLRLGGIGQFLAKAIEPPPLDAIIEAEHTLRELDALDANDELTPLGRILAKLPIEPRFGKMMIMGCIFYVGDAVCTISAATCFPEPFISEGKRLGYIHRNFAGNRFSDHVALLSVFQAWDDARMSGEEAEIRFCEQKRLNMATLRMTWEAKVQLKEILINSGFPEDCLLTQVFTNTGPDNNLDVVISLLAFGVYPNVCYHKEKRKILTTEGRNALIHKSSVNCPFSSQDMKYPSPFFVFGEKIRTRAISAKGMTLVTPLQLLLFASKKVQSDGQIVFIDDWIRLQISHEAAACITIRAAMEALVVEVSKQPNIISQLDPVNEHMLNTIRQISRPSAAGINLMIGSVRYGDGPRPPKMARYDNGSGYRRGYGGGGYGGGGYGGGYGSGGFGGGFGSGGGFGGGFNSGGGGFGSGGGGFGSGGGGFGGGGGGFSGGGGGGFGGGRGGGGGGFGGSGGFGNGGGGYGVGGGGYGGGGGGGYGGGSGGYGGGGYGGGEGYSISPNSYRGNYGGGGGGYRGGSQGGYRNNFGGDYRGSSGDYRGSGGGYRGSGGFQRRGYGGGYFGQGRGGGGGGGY
UniProt Q9WVA3: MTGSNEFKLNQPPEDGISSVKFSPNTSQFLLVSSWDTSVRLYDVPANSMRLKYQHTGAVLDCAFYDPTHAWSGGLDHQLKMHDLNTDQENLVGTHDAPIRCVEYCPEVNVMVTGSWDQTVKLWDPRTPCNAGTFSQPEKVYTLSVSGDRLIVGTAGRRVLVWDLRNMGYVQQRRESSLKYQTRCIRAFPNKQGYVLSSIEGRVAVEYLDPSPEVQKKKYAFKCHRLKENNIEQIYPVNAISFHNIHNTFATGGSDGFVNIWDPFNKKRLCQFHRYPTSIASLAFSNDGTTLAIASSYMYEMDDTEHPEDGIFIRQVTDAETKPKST
UniProt Q501J6: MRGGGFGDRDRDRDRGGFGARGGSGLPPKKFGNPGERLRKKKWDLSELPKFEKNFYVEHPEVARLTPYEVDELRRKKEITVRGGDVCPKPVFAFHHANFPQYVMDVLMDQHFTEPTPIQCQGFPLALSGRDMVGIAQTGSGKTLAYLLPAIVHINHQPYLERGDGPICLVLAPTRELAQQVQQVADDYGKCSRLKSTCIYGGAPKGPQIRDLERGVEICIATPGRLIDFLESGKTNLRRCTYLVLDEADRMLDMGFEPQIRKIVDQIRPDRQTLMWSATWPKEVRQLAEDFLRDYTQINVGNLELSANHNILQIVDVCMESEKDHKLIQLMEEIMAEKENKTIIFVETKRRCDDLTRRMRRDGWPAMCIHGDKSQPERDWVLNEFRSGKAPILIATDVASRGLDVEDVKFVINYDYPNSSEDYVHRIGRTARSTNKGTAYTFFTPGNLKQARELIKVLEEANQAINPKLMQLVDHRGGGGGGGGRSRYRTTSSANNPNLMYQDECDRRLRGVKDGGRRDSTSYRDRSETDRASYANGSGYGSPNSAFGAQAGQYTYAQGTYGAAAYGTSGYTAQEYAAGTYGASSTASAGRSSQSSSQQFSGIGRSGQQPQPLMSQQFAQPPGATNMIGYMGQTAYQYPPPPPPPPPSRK
UniProt Q921F2: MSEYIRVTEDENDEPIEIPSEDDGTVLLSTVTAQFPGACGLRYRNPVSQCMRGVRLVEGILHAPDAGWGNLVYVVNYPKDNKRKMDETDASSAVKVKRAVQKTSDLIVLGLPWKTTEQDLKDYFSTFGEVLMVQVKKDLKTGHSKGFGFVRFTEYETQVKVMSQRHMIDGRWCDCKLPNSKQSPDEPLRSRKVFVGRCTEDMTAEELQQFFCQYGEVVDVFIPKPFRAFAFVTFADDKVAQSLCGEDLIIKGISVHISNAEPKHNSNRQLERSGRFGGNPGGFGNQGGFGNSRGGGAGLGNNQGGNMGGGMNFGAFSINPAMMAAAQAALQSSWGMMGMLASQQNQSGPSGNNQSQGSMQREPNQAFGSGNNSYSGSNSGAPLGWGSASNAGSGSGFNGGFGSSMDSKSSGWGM
UniProt O88569: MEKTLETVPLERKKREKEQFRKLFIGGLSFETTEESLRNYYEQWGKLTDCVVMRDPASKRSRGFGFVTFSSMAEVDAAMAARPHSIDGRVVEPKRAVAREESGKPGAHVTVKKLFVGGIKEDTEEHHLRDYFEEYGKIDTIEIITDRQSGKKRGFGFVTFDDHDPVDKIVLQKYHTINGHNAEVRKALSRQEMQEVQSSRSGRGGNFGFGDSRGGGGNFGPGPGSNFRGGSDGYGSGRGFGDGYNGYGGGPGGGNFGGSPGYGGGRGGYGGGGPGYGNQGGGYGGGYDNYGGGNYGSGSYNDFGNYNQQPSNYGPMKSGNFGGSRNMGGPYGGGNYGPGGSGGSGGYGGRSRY
UniProt D3YXK2: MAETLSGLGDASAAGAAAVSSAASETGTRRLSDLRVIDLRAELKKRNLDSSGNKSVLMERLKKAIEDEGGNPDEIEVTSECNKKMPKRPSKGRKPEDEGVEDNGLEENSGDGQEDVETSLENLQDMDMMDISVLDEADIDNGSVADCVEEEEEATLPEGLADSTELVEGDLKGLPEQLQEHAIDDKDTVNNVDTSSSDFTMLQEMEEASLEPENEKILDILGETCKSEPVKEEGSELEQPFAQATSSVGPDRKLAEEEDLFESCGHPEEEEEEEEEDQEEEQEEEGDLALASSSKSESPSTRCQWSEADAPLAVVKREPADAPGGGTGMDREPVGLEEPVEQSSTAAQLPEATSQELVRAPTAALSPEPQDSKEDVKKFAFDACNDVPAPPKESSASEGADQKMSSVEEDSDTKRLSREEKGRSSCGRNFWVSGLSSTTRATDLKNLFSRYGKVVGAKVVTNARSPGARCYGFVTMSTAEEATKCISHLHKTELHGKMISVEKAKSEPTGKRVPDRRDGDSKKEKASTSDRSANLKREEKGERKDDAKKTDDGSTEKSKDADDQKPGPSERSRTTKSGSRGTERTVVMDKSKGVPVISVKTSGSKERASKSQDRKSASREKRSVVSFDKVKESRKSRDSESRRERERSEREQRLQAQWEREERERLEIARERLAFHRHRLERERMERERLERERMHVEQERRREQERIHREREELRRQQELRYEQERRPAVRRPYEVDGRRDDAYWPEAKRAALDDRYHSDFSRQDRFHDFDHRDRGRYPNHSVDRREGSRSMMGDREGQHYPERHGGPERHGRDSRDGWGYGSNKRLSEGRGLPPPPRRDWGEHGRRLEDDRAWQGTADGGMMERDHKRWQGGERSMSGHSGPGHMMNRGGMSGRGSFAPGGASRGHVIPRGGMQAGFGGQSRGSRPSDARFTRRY
UniProt Q8VEK3: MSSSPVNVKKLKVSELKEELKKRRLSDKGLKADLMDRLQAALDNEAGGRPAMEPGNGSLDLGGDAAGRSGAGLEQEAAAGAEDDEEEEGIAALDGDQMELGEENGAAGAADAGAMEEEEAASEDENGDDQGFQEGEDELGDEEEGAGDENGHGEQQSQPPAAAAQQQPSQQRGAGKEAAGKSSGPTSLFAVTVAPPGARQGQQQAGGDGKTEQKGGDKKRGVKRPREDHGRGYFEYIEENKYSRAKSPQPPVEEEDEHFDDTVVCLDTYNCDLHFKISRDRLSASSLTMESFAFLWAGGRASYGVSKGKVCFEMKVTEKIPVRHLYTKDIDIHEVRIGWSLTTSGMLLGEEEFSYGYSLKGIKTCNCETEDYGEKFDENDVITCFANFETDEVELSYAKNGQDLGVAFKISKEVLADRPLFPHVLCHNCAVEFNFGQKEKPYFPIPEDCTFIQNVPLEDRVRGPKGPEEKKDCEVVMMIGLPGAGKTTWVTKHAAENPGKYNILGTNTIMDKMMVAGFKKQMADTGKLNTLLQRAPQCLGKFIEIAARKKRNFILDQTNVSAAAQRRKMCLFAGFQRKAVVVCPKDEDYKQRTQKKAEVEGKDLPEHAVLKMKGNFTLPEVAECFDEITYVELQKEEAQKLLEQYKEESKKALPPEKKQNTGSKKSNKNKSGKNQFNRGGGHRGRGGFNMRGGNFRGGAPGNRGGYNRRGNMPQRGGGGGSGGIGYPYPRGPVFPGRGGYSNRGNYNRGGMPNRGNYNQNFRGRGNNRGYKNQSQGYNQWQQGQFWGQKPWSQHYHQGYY
UniProt Q60749: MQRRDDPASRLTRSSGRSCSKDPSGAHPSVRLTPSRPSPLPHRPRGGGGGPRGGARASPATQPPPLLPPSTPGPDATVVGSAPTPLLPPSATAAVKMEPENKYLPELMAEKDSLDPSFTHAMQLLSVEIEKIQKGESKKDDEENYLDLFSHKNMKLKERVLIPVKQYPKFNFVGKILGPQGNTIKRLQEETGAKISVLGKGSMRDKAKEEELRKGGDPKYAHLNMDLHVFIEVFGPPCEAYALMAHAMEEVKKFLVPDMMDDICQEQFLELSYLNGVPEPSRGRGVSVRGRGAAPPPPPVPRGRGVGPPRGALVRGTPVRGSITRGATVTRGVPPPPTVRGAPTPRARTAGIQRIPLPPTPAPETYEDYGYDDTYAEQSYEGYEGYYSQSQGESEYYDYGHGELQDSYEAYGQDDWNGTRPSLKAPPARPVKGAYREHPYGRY

Results are given in words; binding and its absence hold for the method and conditions named. Binding seen in cells or lysates may run through a third protein. A yes stands for co-enrichment or nearness to the bait. Other partners may have been found.

The labels stand for the following.
T1: Drosha (mouse (endogenous in DG NSCs)) (UniProt Q5HZJ0)
T1 sequence: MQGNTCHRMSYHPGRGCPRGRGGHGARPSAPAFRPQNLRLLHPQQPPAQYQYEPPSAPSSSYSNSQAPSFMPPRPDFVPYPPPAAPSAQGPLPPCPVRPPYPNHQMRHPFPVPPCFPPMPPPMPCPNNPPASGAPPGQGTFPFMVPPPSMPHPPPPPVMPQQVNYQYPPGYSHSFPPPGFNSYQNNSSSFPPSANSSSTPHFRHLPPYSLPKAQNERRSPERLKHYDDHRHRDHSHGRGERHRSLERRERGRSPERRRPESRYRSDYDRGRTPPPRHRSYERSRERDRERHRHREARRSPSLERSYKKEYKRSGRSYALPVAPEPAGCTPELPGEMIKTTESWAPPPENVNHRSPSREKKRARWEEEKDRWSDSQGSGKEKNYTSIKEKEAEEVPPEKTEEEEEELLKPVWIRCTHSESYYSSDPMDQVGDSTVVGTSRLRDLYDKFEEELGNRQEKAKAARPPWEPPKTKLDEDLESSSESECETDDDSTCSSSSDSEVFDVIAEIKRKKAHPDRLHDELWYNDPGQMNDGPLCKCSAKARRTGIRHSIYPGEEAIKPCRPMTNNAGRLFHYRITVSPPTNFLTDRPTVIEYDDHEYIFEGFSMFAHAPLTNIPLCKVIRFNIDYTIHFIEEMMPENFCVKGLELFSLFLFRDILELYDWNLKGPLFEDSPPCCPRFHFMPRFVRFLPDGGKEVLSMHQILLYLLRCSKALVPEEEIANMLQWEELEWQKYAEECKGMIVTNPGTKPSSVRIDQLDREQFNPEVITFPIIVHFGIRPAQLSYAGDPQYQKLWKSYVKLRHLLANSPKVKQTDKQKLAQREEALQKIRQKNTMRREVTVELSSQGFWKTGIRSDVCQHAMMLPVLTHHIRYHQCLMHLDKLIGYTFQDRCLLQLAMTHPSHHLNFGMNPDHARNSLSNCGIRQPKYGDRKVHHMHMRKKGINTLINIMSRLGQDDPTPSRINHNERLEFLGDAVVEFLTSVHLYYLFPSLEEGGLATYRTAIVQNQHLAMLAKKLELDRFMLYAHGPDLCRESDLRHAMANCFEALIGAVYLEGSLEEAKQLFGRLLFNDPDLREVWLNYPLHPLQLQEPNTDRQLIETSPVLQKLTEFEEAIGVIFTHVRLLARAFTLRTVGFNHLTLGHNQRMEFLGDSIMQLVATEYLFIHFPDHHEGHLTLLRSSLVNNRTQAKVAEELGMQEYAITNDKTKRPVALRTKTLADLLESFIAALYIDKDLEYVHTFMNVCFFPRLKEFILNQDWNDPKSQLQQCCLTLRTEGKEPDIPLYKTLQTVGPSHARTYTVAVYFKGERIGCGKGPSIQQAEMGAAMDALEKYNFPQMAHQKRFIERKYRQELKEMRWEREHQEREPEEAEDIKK

B1: Khsrp (protein, UniProt Q3U0V1 1-748)
chain: MSDYNTGGPPPGPPPPAGGGGGAAGAGGGPPPGPPGAGDRGGGGPGGGGPGGGGASGGPSQPPGGGGPGIRKDAFADAVQRARQIAAKIGGDAATTVNNNTPDFGFGGQKRQLEDGDQPDSKKLASQGDSIGSQLGPIHPPPRTSMTEEYRVPDGMVGLIIGRGGEQINKIQQDSGCKVQISPDSGGLPERSVSLTGAPESVQKAKMMLDDIVSRGRGGPPGQFHDNANGGQNGTVQEIMIPAGKAGLVIGKGGETIKQLQERAGVKMILIQDGSQNTNVDKPLRIIGDPYKVQQACEMVMDILRERDQGGFGDRNEYGSRVGGGIDVPVPRHSVGVVIGRSGEMIKKIQNDAGVRIQFKQDDGTGPEKIAHIMGPPDRCEHAARIINDLLQSLRSGPPGPPGAPGMPPGGRGRGRGQGNWGPPGGEMTFSIPTHKCGLVIGRGGENVKAINQQTGAFVEISRQLPPNGDPNFKLFVIRGSPQQIDHAKQLIEEKIEGPLCPVGPGPGGPGPAGPMGPFNPGPFNQGPPGAPPHAGGPPPHQYPPQGWGNTYPQWQPPAPHDPNKAAAAATDPNAAWAAYYSHYYQQPPGPVPGPAPAPAAPPAQGEPPQPPPTGQSDYTKAWEEYYKKIGQQPQQPGAPPQQDYTKAWEEYYKKQAQVATGGGPGAPPGSQPDYSAAWAEYYRQQAAYYGQTPGPGGPQPPPTQQGQQQASGNCHPPPPPFSFQPPATVHPALVGSAGNPFPCGVCP
B2: Sf1 (protein, UniProt Q64213 1-653)
chain: MATGANATPLDFPSKKRKRSRWNQDTMEQKTVIPGMPTVIPPGLTREQERAYIVQLQIEDLTRKLRTGDLGIPPNPEDRSPSPEPIYNSEGKRLNTREFRTRKKLEEERHTLITEMVALNPDFKPPADYKPPATRVSDKVMIPQDEYPEINFVGLLIGPRGNTLKNIEKECNAKIMIRGKGSVKEGKVGRKDGQMLPGEDEPLHALVTANTMENVKKAVEQIRNILKQGIETPEDQNDLRKMQLRELARLNGTLREDDNRILRPWQSSETRSITNTTVCTKCGGAGHIASDCKFQRPGDPQSAQDKARMDKEYLSLMAELGEAPVPASVGSTSGPATTPLASAPRPAAPASNPPPPSLMSTTQSRPPWMNSGPSENRPYHGMHGGGPGGPGGGPHSFPHPLPSLTGGHGGHPMQHNPNGPPPPWMQPPPPPMNQGPHPPGHHGPPPMDQYLGSTPVGSGVYRLHQGKGMMPPPPMGMMPPPPPPPSGQPPPPPSGPLPPWQQQQQQPPPPPPPSSSMASSTPLPWQQNTTTTTTSAGTGSIPPWQQQQAAAAASPGTPQMQGNPTMVPLPPGVQPPLPPGAPPPPPCSIECLLCLLSSPNSLCLSPNRAARIPPRGSDGPSHESEDFPRPLVTLPGRQPQQRPWWTGWFGKAA
B3: Prpf6 (protein, UniProt Q91YR7 1-941)
chain: MNKKKKPFLGMPAPLGYVPGLGRGATGFTTRSDIGPARDANDPVDDRHAPPGKRTVGDQMKKNQAADDDDEDLNDTNYDEFNGYAGSLFSSGPYEKDDEEADAIYAALDKRMDERRKERREQREKEEIEKYRMERPKIQQQFSDLKRKLAEVTEEEWLSIPEVGDARNKRQRNPRYEKLTPVPDSFFAKHLQTGENHTSVDPRQTQFGGLNTPYPGGLNTPYPGGMTPGLMTPGTGELDMRKIGQARNTLMDMRLSQVSDSVSGQTVVDPKGYLTDLNSMIPTHGGDINDIKKARLLLKSVRETNPHHPPAWIASARLEEVTGKLQVARNLIMKGTEMCPKSEDVWLEAARLQPGDTAKAVVAQAVRHLPQSVRIYIRAAELETDIRAKKRVLRKALEHVPNSVRLWKAAVELEEPEDARIMLSRAVECCPTSVELWLALARLETYENARKVLNKARENIPTDRHIWITAAKLEEANGNTQMVEKIIDRAITSLRANGVEINREQWIQDAEECDRAGSVATCQAVMRAVIGIGIEEEDRKHTWMEDADSCVAHNALECARAIYAYALQVFPSKKSVWLRAAYFEKNHGTRESLEALLQRAVAHCPKAEVLWLMGAKSKWLAGDVPAARSILALAFQANPNSEEIWLAAVKLESENNEYERARRLLAKARSSAPTARVFMKSVKLEWVLGNISAAQELCEEALRHYEDFPKLWMMKGQIEEQGELMEKAREAYNQGLKKCPHSTPLWLLLSRLEEKIGQLTRARAILEKSRLKNPKNPGLWLESVRLEYRAGLKNIANTLMAKALQECPNSGILWSEAVFLEARPQRKTKSVDALKKCEHDPHVLLAVAKLFWSERKITKAREWFHRTVKIDSDLGDAWAFFYKFELQHGTEEQQEEVRKRCENAEPRHGELWCAVSKDITNWQRKIGEILVLVAARIKNTF
B4: Sart1 (protein, UniProt Q9Z315 1-806)
chain: MGSSKKHRGEKEAAGTTAAAGTGGTTEQPPRHREHKKHKHRSSGGGSSGGERRKRSRERGSERGSGRRGAEAEARSGAHGRERSQAEPSERRVKREKRDDGYEAAASSKASSGDASSLSIEETNKLRAKLGLKPLEVNAVKKEAGTKEEPVAADVINPMALRQREELREKLAAAKEKRLLNQKLGKIKTLGEDDPWLDDTAAWIERSRQLQKEKDLAEKRAKLLEEMDQEFGVSTLVEEEFEQRRQDLYSARDLQGLTVEHAIDSFREGETVVLTLKDKGVLQDGEDVLVNVNMVDKERADKNVELRKKKPDYLPYAEDESVDDLAQQKPRSILAKYDEELEGERPHSFRLEQGGMADGLRERELEEIRTKLRLQAQSLSSVGPRLASEYLSPEEMVTFKKTKRRVKKIRKKEKEVIMRADDLLPLGDQTQDGDFGSRLRGRGRRRVPEVEEEALEDEEKDPVAQPPPSDDTRVENMDISDEEDGGALPPGSPEGLEEDEAELELQKQLEKGRRLRQLQQLQQLRDSGEKVLEIVKKLESRQRGWEEEEDPERKGTIVFNATSEFCRTLGEIPTYGLAGNREEQEELMDFERDEERSANGGSESDGEENIGWSTVNLDEEKQHQDFSASSTTILDEEPIVNRGLAAALLLCQNKGLLETTVQKVARVKAPNKSLPSAVYCIEDKMAIDDKYSRREEYRGFTQDFKEKDGYKPDVKIEYVDETGRKLTPKEAFRQLSHRFHGKGSGKMKTERRMKKLDEEALLKKMSSSDTPLGTVALLQEKQKAQKTPYIVLSGSGKSMNANTITK
B5: Pabpn1 (protein, UniProt Q8CCS6 1-302)
chain: MAAAAAAAAAAGAAGGRGSGPGRRRHLVPGAGGEAGEGDPGGAGDYGNGLESEELEPGELLPEPEPEEEPPRPRAPPGAPGPGPGSGAPGSQEEEEEPGLVEADPGDGAIEDPELEAIKARVREMEEEAEKLKELQNEVEKQMNMSPPPGNAGPVIMSLEEKMEADARSIYVGNVDYGATAEELEAHFHGCGSVNRVTILCDKFSGHPKGFAYIEFSDKESVRTSLALDESLFRGRQIKVIPKRTNRPGISTTDRGFPRSRYRARTTNYNSSRSRFYSGFNSRPRGRIYRGRARATSWYSPY

The experiment addresses T1, Drosha (mouse (endogenous in DG NSCs)). Briefly: affinity purification with mass spectrometry.
On to Safb2 (from UniProt Q80YR5 1-991), for which the binding entry was “binds”.

As for Dhx9 (from UniProt O70133 1-1380), the binding result is given as “binds”.

Regarding Bub3 (from UniProt Q9WVA3 1-326), the binding entry was “binds”.

With Ddx17 (from UniProt Q501J6 1-650), the binding entry is “binds”.

For the molecule TDP-43 (from UniProt Q921F2 1-414), the binding result is on record as “binds”.

Hnrnpa2b1 (from UniProt O88569 1-353): the binding entry is recorded as “binds”.

“Scaffold Attachment Factor B1 (Safb1) (from UniProt D3YXK2 1-937)”: the binding entry is given as “binds”.

Consider Hnrnpu (from UniProt Q8VEK3 1-800), for which the binding result is on record as “binds”.

Regarding Sam68 (from UniProt Q60749 1-443), the binding entry is recorded as “binds”.

As to B1, the binding result was “binds”.

With B2, the binding entry is recorded as “binds”.

B3: the binding entry is listed as “binds”.

Regarding B4, the binding result is recorded as “binds”.

For B5, the binding entry is listed as “binds”.
